Source: publication doi:10.1101/552612
These are yes or no findings as the source states them, for the method shown. Some binding calls cover weakened binding; strength is not graded here.

Chains of the proteins cited; added tags and fusions are not shown.
UniProt Q9SAR1: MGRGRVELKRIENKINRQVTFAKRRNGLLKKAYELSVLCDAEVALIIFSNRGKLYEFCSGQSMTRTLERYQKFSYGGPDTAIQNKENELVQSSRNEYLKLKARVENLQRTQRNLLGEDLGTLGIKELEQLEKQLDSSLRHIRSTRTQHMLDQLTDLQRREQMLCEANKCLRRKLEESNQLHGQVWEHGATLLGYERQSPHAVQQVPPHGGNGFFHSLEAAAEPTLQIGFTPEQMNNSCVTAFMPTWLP
UniProt Q10CQ1: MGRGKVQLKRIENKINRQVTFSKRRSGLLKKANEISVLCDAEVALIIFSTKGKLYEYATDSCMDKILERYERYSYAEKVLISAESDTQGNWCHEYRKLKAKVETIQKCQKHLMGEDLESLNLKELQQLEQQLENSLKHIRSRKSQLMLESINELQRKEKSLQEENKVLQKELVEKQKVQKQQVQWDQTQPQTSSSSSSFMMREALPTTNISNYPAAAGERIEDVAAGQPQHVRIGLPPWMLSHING
UniProt Q6Q9I2: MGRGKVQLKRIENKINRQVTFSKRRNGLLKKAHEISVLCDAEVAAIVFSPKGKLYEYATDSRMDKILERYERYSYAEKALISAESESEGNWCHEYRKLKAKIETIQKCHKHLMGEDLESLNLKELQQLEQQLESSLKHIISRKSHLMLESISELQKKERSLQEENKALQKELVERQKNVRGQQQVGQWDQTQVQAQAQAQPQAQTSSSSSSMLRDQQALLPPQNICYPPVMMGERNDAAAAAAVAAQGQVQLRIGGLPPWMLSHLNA
UniProt Q0D4T4: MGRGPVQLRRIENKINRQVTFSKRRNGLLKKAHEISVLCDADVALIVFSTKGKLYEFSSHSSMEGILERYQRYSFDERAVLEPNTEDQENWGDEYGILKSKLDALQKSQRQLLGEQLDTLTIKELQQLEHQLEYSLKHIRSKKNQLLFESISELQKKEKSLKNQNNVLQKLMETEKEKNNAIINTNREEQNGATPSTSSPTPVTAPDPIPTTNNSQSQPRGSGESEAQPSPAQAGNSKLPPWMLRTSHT

Experiments:
Assay in all cases: two-hybrid
[1] = target: OsMADS8 (rice ortholog of SEP3), GAL4 BD fusion (rice (Oryza sativa L.)) (UniProt Q9SAR1)
[2] = target: OsMADS14 (rice ortholog of AP1), yeast two-hybrid fusions (rice (Oryza sativa L.)) (UniProt Q10CQ1)
[3] = target: OsMADS15 (rice ortholog of AP1), yeast two-hybrid fusions (rice (Oryza sativa L.)) (UniProt Q6Q9I2)

binding [1]	binding [2]	binding [3]	Substance
binds	–	–	OsMADS14 (rice ortholog of AP1), yeast two-hybrid fusions (from UniProt Q10CQ1 1-246)
binds	binds	binds	OsMADS18 (rice ortholog of AP1), yeast two-hybrid fusions (from UniProt Q0D4T4 1-249)
binds	binds	–	OsMADS15 (rice ortholog of AP1), yeast two-hybrid fusions (from UniProt Q6Q9I2 1-267)
